Source: patent publication US4162316A (priority 1975, dated 1979)

Test system: female mice of ddN strain
Test: animal or person
Conditions: Mus musculus, po, 0.5 h, read-out: Analgesic activity ED50-value, Phenylquinone method (p.o.)

With CN1CC[C@]23c4c5ccc(O)c4O[C@H]2[C@@H](O)C=C[C@H]3[C@H]1C5.Cl [Reference compound D, Morphine hydrochloride] the ED50 was 4.2 mg/kg.
